Experimental data taken from patent US10240216B2 (priority 2013, dated 2019).
For some assays here: At least one structure is not confirmed: it was looked up by name or label, or the drawing left a doubt. Some entries share one result that the patent states for a list of compounds.

Legend:
[1] = cited from earlier work
Magnaporthe oryzae = assay type: cell-based

Row | Compound | antimicrotubule activity [1] | concentration inhibiting the conidial spore germination of Magnaporthe olyzae (Magnaporthe oryzae)
1 | Cc1ccc2c(c1/C=C/C=C/C(=O)O)[C@H](C)C[C@H](C)C2 [tanzawaic acid A] | None of tanzawaic acids A, B, C and D was found to show antimicrotubule activity | –
2 | CC1=C[C@@H](O)[C@H]2C[C@@H](C)C[C@@H](C)[C@@H]2[C@@]1(O)/C=C/C=C/C(=O)O [tanzawaic acid I, Tanzawaic acid I] | – | > 50 µg/mL
3 | CC1=C[C@H](O)[C@H]2C[C@@H](C)C[C@@H](C)[C@@H]2[C@@]1(O)/C=C/C=C/C(=O)O [tanzawaic acid J, Tanzawaic acid J] | – | > 50 µg/mL
4 | C[C@H]1C[C@@H](C)[C@@H]2[C@@H](/C=C/C=C/C(=O)O)[C@](C)(O)C=C[C@H]2C1 [tanzawaic acid K, Tanzawaic acid K] | – | up to 50 μg/mL
5 | CC1=C(/C=C/C=C/C(=O)O)[C@H]2[C@H](C)C[C@@](C)(O)C[C@@H]2C=C1 [tanzawaic acid L, Tanzawaic acid L] | – | up to 50 μg/mL
